Hit rate of the full screen: of about 52,000 sequences, about 210 (0.4%) were called active.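 The calls were made as follows: active = gene whose silencing raises cell survival under the drug, median off-target-corrected z-score across its silencing RNAs 2 or more; inactive = the rest.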 Some of the results follow.

The assay in a line: Resistance to Poly (ADP-Ribose) Polymerase inhibitor: Gene Identification via Genome-wide siRNA Screen. As to conditions: mouse BRCA2 R2336H ES cells, olaparib, CellTiter-Glo viability; hits give high values. In short, it runs like this:
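Genome-wide siRNA screen (3 siRNAs/gene, 20 nM) in mouse ES cells carrying hypomorphic BRCA2 R2336H; olaparib 500 nM added 48 h post-transfection, CellTiter-Glo viability 72 h later. Normalized to plate-median negative control; MAD z-scores, gene median, seed-adjusted.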
GUUUAACUACAACAAUGAGTT against Dcpp: the z-score was inactive: 0.548.
CCACCACAAGUUUCCAUGUTT against Rnf17: the z-score was inactive: -0.286.
The figure for CCCAUGCUAGAGAGAAUUCTT against D10628 is inactive: 0.896; for GCUUCUCAGAAGAUGUACUTT against Rgs16 it is inactive: -1.7; for GGCAUUUAAAUCUGUGUGUTT against Slc39a6 it is inactive: 0.328.
The figure for “CCAAGUCUUUGCCUACGUGTT against 1700022L09Rik” is inactive: 2.71.
“GGUUUUUGUCCCAUCUUGGTT against D730019B10Rik”: the z-score was inactive: -0.207.
The figure for GCUUACCUGAGAUGUGCUCTT against Dbx1 is inactive: -0.36.
Regarding “GGGUAAAAUUAUUCUCAGGTT against 1600012H06Rik”, the z-score was inactive: 0.492.
Turning to GGUGGUUCACAAAUACUGUTT against Agtpbp1, the z-score is inactive: -0.765.
For the sequence GGAAGAUGAAAGAAGAGAGTT against Punc, the z-score is inactive: -0.519.
Turning to “GCACCUUCCAUCGGAAUGCTT against 1110034B05Rik”, the z-score was inactive: -0.469.
Then GCCAUCACGAAAAUUCUAGTT against Tufm, with inactive: 0.859.
Then GGAAGAGUGGGAGAAAAUATT against H2-M9, with inactive: -2.66; and “CCCAGAUACCUGGAAAACGTT against 5730507A09Rik”, with inactive: -0.133.
GGUUGAAGGCCAAUUCAAATT against Lrrc10: the z-score was inactive: 0.194.
The figure for GGGCAACAUUUUUCAGUGCTT against Prox1 is inactive: -0.785.
Regarding GAGAGAGCAGAGCUUGAGATT against Angptl6, the z-score was inactive: -1.12.
For the sequence CCAACCAAAGAUGAAUUGUTT against Usp19, the z-score was inactive: 0.727.
The figure for GGCAUGGUGAAUGAAAUUGTT against Calml3 is inactive: -0.596; for “CCCAAAUCCUACGAAGCCUTT against 1200003E16Rik” it is inactive: 1.59; for CCGAUUCACUGUCCCUUUATT against AI132487 it is inactive: 0.58.
Take GGAUUGACCUCCAAGGACATT against Osgep: the z-score was inactive: -2.19.
As for GGGUUUGGAUGCAGCAUCUTT against Gata1, the z-score was inactive: 0.598.
The figure for CCCAAACUAUGUUCUUGAATT against Tll2 is inactive: 1.03.
Then CCUACUACCUCUGUCAACATT against Nme4, with inactive: 1.46; and GAUUGUCACCACCUUAAGATT against Chchd5, with inactive: 0.272; and “GCUGAUAGGCACGAGUAUCTT against 4930430F08Rik”, with inactive: 0.602.
The figure for GGAGGAACAAUCAUCUAUATT against Ripk2 is inactive: 0.105; for GGGAACCUUGCUAUUUGGATT against Gucy2c it is inactive: 1.73; for GCUUGAAGUCUCUUGCUGGTT against Nhlrc2 it is inactive: 0.484.
For GCGGCAGUAGCCAGAAAAATT against Rhox7, the z-score was inactive: -3.29.
The figure for GCGAUGAGUAUAUCAAGUUTT against Hdac2 is inactive: -0.83.
Turning to GCUCUAACGUAUGAUGCCATT against Nde1, the z-score was inactive: -0.344.
Regarding GGAGCAGGUAAACAUGUCUTT against Fpr-rs7, the z-score was inactive: 0.964.
Then GGAAUAUAUCUGCUUUAUCTT against Gphb5, with inactive: 0.414; and GGCACCCGAGUAGGUCAAATT against Carhsp1, with inactive: -0.139.
The figure for GGAGAAAGGUGGUACCAAGTT against Deaf1 is inactive: -2.56; for GGAGAUGUAUGCCGCUUAUTT against Lcat it is inactive: 1.93; for CCAGCUUCCUCGUAAGUGATT against Hsf4 it is inactive: -2.13.
Regarding GGACCUUGGUAAUAGAAAGTT against Pdzk4, the z-score is inactive: -0.541.
The figure for GGACAUGGUCUCCAAACUATT against Pgd is inactive: -2.75.
Then “GGUUCAGAAGUCUAUGUCUTT against 2700038N03Rik”, with inactive: 1.14; and GGAUCUUACAGUUUCGUCUTT against Oas3, with inactive: 0.216.
On to GGGUUAUAAGAAAAAGUACTT against Krt2-20, for which the z-score was inactive: -0.0269.
The figure for GGCUGUCCGUACCUAUAAATT against Cpb1 is inactive: 3.31.
As to “GAGUCUUGUUUGAAAGAACTT against F730035P03Rik”, the z-score was inactive: -0.683.
Then GGAGCUUUCAGCCUAAUUUTT against Prkcdbp, with inactive: -0.275.
The figure for “UUUCGAGCUGAUCCAUGAGTT against 1700021K02Rik” is inactive: 2.26; for “GGAGACUCCAUACCAGUGUTT against 2810439M05Rik” it is inactive: 1.01.
In the case of GGAAAGGCUGUUUCCUACCTT against Atox1, the z-score was inactive: 2.62.
The figure for “GGCAUUAAUCCAGUCUUGGTT against 8430417A20Rik” is inactive: 0.71; for GGGUUACAGAAUCUGUUAATT against Nup153 it is inactive: 1.16; for GGGUGAAGAGAGAUGAAAATT against Krt2-20 it is inactive: 0.28.
The figure for GGAGAAUGAACAGACAGAGTT against Slc39a14 is inactive: -0.694.
Then GGAGUCCUUUAAGAUUAUATT against Pex13, with inactive: -0.29.
In the case of GGAAUAUGACUUCAAGAUGTT against Lmnb2, the z-score was inactive: 0.116.
For “GGGCAUGAAGAUCAAGAAGTT against 4932417D18Rik”, the z-score was inactive: 2.85.
Turning to GGUAAAAGUCGAUGGCCAGTT against Calr3, the z-score is inactive: 0.605.
Then GGACAAGGAGGAUUUCUUCTT against Tusc4, with inactive: -0.361.
Then “GGUGUUUGUGAAGGAGCAGTT against 5730593F17Rik”, with inactive: 0.644; and “GGUGCAAUCCUACAGUUCUTT against 1110008P14Rik”, with inactive: -2.24.
Consider CCCAGAAUUGAACUAAAAATT against Mrpl32, for which the z-score is inactive: 2.35.
For GCUAUUCGUACAUAUGAUUTT against AB041550, the z-score was inactive: 0.739.
For “CGGGUGUGCCGUGUUUGUATT against 3110005G23Rik”, the z-score was inactive: -0.353.
Regarding GCACUUUGUGCUAUAUAAGTT against Mapk14, the z-score was inactive: -1.97.
Regarding GACAAAGUAACAUCUGUAUTT against Olfr1447, the z-score was inactive: -1.15.
Then GGAAAAUGUCAAAAUUGGCTT against Rfc4, with inactive: -0.441; and AGUAUUCUUUGCUUUCCUUTT against Olfr822, with inactive: -0.833; and GGCUACCGUGAAGAUGGAGTT against Fabp6, with inactive: -0.576.
As to CCGUCAAAACAUUACCAUUTT against BC034076, the z-score is inactive: 0.182.
As for GGGUGACUUAGAAUUCUGUTT against Diras1, the z-score is inactive: 0.848.
On to UGAUAUUUGGUGUAUUCAGTT against Olfr972, for which the z-score is inactive: 1.05.
Then GCUGAAACAUCGGUAUGAGTT against Pla2g4c, with inactive: 0.762.
Regarding GGUGCUAGUGGAUCAAACGTT against BC051227, the z-score is inactive: 1.65.
The figure for “CCUAGAGCUUUUCAGAAUATT against 2410005K20Rik” is inactive: -0.874.
Then GGUCCUUUGUCUAUAUCAATT against Suv39h1, with inactive: 4.56; and CCAAAAAAUCCUAUACUCUTT against Cdh8, with inactive: 0.896.
In the case of “CCGAGUAAGUUUAACUAAGTT against 9430028I06Rik”, the z-score is inactive: 0.152.
The figure for GGGAAUACAUUUGAGAUGATT against Ptgfrn is inactive: -0.0463.
Then GGAUGUCUUUUUAAGGUUUTT against Cri1, with inactive: -0.279.
The figure for GGGAGAAAUACUCUUGUUATT against Apg4a is inactive: -0.0377.
As to GGGCAGAAGUCGUGUUUCUTT against Dorz1, the z-score was inactive: -1.21.
The figure for GGAAGAUGCCUUUUCCAAGTT against Syt1 is inactive: -0.477; for GCGCAUCAGAGUCUCAUAATT against Hivep1 it is inactive: 0.39.
Turning to GGCAUGUGAUCUACCAAUCTT against Ly6g5b, the z-score is inactive: -0.642.
The figure for GGAGCAGAACAUUAUCUUCTT against Tnn is inactive: 0.437; for CCAUUCCUGUCCCUUAAUATT against Tmem55b it is inactive: -0.0373.
The figure for GGCAAUCGCUUUGAGCCAUTT against Hnrpm is inactive: -0.786; for CCUAUCUAUGACCUCACAUTT against Rorb it is inactive: 0.397.
On to CCGAAGACUAGCUAAUUUUTT against Sult1c1, for which the z-score is inactive: 0.117.
In the case of CCUGAGGUUACAAGACGGUTT against Dll3, the z-score was inactive: 0.0094.
The figure for GCGGCUGAUACACUUUGUATT against Maob is inactive: -0.424.
As to GGCUCAGAAACAACAGGCUTT against Sh2d3c, the z-score is inactive: 0.745.
Then GCAUUAUGGAUUGACCUAUTT against Noto, with inactive: -0.496; and “GGUAUGUUCAAGAUCAAUATT against 2810013E07Rik”, with inactive: -1.23; and “GGAUUACGAGAAACUUGGUTT against 1110025F24Rik”, with inactive: 0.0176.
The figure for “GCACAUUCAACUUUGACCATT against 2410008K03Rik” is inactive: 0.851; for “GCACUACAAAUUUAUACCUTT against 2610101N10Rik” it is inactive: 1.36.
Take CCCACAUAAAAAACAGUUGTT against Pdcd1lg1: the z-score is inactive: -0.44.
For the sequence GGAGUUAGUGAGCUUUGAGTT against Zfp426, the z-score was inactive: -0.787.
As for “GCUAUACAUCGAGUUUGUCTT against 2410014A08Rik”, the z-score was inactive: 0.00708.
The figure for GGGAGAUGAGUUUUCUGAUTT against Cyp2c70 is inactive: -0.974; for “GGUACAGAUGGUGUACAAUTT against 4930595M18Rik” it is inactive: -0.359.

Source of the values: PubChem BioAssay AID1347423 (Functional Genomics Laboratory (NCATS/FGL), 2020).
